Measured values as given in PubChem BioAssay AID540256 (National Center for Advancing Translational Sciences (NCATS), 2011).
Out of some 300,000 compounds screened, about 3,700 (1.2%) were called active. Inconclusive results, whose numbers are uncertain, are shown with a selection of clear calls. Calls follow the shape of the full dose curve; tested in HEK293 cells. Potencies beside an inconclusive call are fits to weak or partial responses and may not hold up.

assay: qHTS for Inhibitors of binding or entry into cells for Lassa Virus; conditions: Lassa virus pseudotype entry inhibition, cell reporter; activity change, negative = inhibition: at 37.9 µM (top of the series) unless noted; also: nearly all actives have a fitted effect of over 50% in size
% is scaled to controls: 0 for no effect and ±100 for the full control effect; potency is read from the fitted curve at half-maximal effect.

Compound	Potency	activity change, negative = inhibition
CCOC(=O)C1(CCOc2ccccc2)CCN(Cc2cccc(OC)c2O)CC1	inconclusive: 11.2 µM [inhibitor, partial curve]	–
CC1CN(C(=O)c2ccc(NS(=O)(=O)c3ccc(F)c(F)c3)cc2)CC(C)O1 (configuration not stated)	inconclusive: 5.62 µM [activator, single point]	–
Cc1ccc(CNC(=O)c2cnc3ccccc3n2)cc1	inconclusive: 1.26 µM [inhibitor, full curve, poor fit]	–
Cc1cccc(NC(=O)c2oc3ccc(S(=O)(=O)N4CCOCC4)cc3c2C)c1C	inconclusive: 14.6 µM [inhibitor, partial curve, poor fit]	–
CCCC(=O)N/C(N)=N/c1nc2ccccc2o1	inconclusive: 1.41 µM [activator, partial curve, poor fit]	–
COc1ccc(S(=O)(=O)N(CCc2ccccc2)CC(=O)Nc2cc(C)ccc2C)cc1	inconclusive: 10 µM [inhibitor, partial curve]	–
CCOC(=O)c1c(NC(=O)CSc2nnnn2-c2ccccc2OCC)sc2c1CC(C)(C)NC2(C)C	inconclusive: 17.8 µM [inhibitor, single point]	–
Cc1ccc(NC(=O)CSc2nc(-c3cccs3)cc(C(F)(F)F)n2)cc1C	inconclusive: 7.08 µM [inhibitor, partial curve]	–
CCOC(=O)C(CCCP(=O)(c1ccccc1)c1ccccc1)(NC(C)=O)C(=O)OCC	inconclusive: 0.562 µM [inhibitor, full curve, poor fit]	–
Cc1cccc(OCC(=O)NNc2c3ccccc3nc3ccccc23)c1	inconclusive: 29.1 µM [inhibitor, single point]	–
CN(C(=O)Cc1c[nH]c2ccccc12)C(C(=O)Nc1ccc2c(c1)OCO2)c1ccccc1 (configuration not stated)	inconclusive: 18.4 µM [inhibitor, single point]	–
CC(=O)N1CCCc2cc(S(=O)(=O)NC(C(=O)NCc3ccc(C)cc3)C(C)C)ccc21 (configuration not stated)	inconclusive: 18.3 µM [inhibitor, single point]	–
CCN(CC)c1ccc(/C=N/NC(=O)Cc2cccs2)c(O)c1	active: 3.16 µM	–
C=CCN(c1ccccc1)S(=O)(=O)c1cccc(C(=O)NC2CCN(Cc3ccccc3)CC2)c1	inconclusive: 8.91 µM [inhibitor, partial curve, poor fit]	–
Cc1nnc(SCc2ccccc2Cl)c2cc3occc3n12	–	inactive: 15.8% [at 46.1 µM]
Cc1cccc2sc(N(Cc3cccnc3)C(=O)Cc3ccccc3)nc12	inconclusive: 28.2 µM [inhibitor, single point]	–
CCCCCn1c(=N)c(S(=O)(=O)c2ccccc2)cc2c(=O)n3cccc(C)c3nc21	inconclusive: 1.12 µM [activator, partial curve, poor fit]	–
O=C(COc1ccccc1[N+](=O)[O-])N/N=C/c1cccc(OC(=O)c2ccc3c(c2)OCO3)c1	–	inactive: 27.6%
Cc1cc(Nc2ccc(C(C)C)cc2)nc(-n2nc(C)cc2C)n1	inconclusive: 8.91 µM [inhibitor, partial curve]	–
CC1=C(C(=O)Nc2cc(C(=O)N3CCN(c4cccc(C)c4)C(C)C3)ccc2C)SCCO1 (configuration not stated)	inconclusive: 35.5 µM [inhibitor, single point]	–
C/C(=N/Oc1nc(C)cc(C)n1)c1ccc(Cl)cc1Cl	–	inactive: -24.6%

Compound	Potency	activity change, negative = inhibition
Cc1ccccc1C1C(C#N)=C2N=C(N)c3c(sc4c3CCCCC4)N2C2=C1C(=O)CC(C)(C)C2 (configuration not stated)	inconclusive: 8.2 µM [inhibitor, partial curve]	–
CC1=NN(c2ccc(C)cc2)C(=O)/C1=C\C=C\c1ccccc1	–	inactive: 10.1%
Cc1cc(=O)n2c(C(=O)Nc3ccc(F)c(Cl)c3)c(C(=O)Nc3cccc(C)c3C)sc2n1	inconclusive: 35.5 µM [activator, single point]	–
CCCCNS(=O)(=O)c1ccc2nc(SCC(=O)Nc3sccc3C#N)[nH]c2c1	–	inactive: -9.07%
Cc1ccc(OCCCN2C(=O)C(=O)c3cccc(C)c32)cc1	inconclusive: 35.5 µM [inhibitor, single point]	–
Cc1ccc(CC(=O)NC2CCN(C)CC2)cc1	–	inactive: 4.99% [at 46.1 µM]
CCOC(=O)CSc1nnc(CNC(=O)c2cc(OCC)c(OCC)c(OCC)c2)n1C	inconclusive: 23.1 µM [activator, partial curve, poor fit]	–
O=C(Nc1cc(-c2nc3ccccc3s2)ccc1Cl)c1ccc2c(c1)OCO2	inconclusive: 1.46 µM [inhibitor, full curve, poor fit]	–
CC1=NN(C(C#N)c2ccccc2C)C(C)(C)C1 (configuration not stated)	–	inactive: -1.79%
O=C(CSc1nc2ncccc2[nH]1)NCc1ccccc1	–	inactive: -4.06%
CCCCC1CCC(C(=O)Nc2ccccc2)CC1 (configuration not stated)	inconclusive: 5.17 µM [activator, single point]	–
CC(Cc1cccs1)NC(=S)Nc1ccccc1 (configuration not stated)	inconclusive: 1.58 µM [activator, full curve]	–
COC(=O)C(Cc1c[nH]c2ccccc12)NC(=O)c1cc(-c2ccc(OC)c(OC)c2)oc1C (configuration not stated)	active: 10 µM	–
Cc1cccc(OCC(=O)Nc2ccncc2)c1C	inconclusive: 1.26 µM [inhibitor, single point]	–
CCOc1ccc(S(=O)(=O)n2c(C)nc3ccccc32)cc1	–	inactive: -0.142%
O=C(Nc1cccc(C(=O)N2CCN(c3ccc(F)cc3)CC2)c1)c1nsc2ccccc12	inconclusive: 14.1 µM [inhibitor, single point]	–
COc1cc(C(=O)NC(=S)Nc2ccc(Cl)c(C(=O)O)c2)cc(OC)c1OC	inconclusive: 35.5 µM [activator, partial curve, poor fit]	–
CN1CCN(c2ccc(-c3cccc(NC(=O)COc4ccc(Cl)cc4Cl)c3)nn2)CC1	active: 4.47 µM	–
COc1cc(CNc2cccc(C(=O)O)c2)cc(Br)c1OCC(=O)NC(C)(C)C	inconclusive: 4.11 µM [inhibitor, partial curve, poor fit]	–
Cc1cccc(N2CCC(N3CCN(C4CCCCC4)C(CCO)C3)CC2)c1C (configuration not stated)	–	inactive: 5.89% [at 46.1 µM]
CCOc1ccc(CNS(=O)(=O)c2c(C)nc3scc(C)n3c2=O)cc1OC	–	inactive: -13.4% [at 46.1 µM]

At a glance, part of the list above.
Compound	Potency	activity change, negative = inhibition
Cc1cccc(OCC(=O)Nc2ccncc2)c1C	inconclusive: 1.26 µM [inhibitor, single point]	–
CCOc1ccc(S(=O)(=O)n2c(C)nc3ccccc32)cc1	–	inactive: -0.142%
